# Results from one PubChem assay

Data taken from PubChem BioAssay AID1159506, deposited by NCATS (2015).

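Luminescence from an EWS-FLI1 target-promoter (NR0B1) reporter, set against a CMV-promoter reporter, two days after silencing single genes in TC32 Ewing sarcoma cells. Each siRNA was applied at 20 nM. A z-score of the log NR0B1-over-CMV signal, less the median of siRNAs with the same seed; more negative means a stronger specific loss of the NR0B1 reporter.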

This is part of the screen; most of the strongest results are not listed here. Sequences are the guide (antisense) strand, without overhang.

Sequence,target gene,seed-corrected z-score
UAGGCUAUAGGUGACCUGG,DCAF17,0.5046
UUCGAUACAAUGUUUCCAG,PPEF2,-0.02664
UUCGGCUCUUCUUCGUUCG,NFATC2,-0.3505
AUACUUUUAACAACUGAGA,RHOF,-0.3336
AAAAUAACGACUCAGAGAG,C3orf52,1.363
AAUCAUUCAAUAGGUUUUG,C4orf50,1.317
UUCUGACCAAUAGGUAGGC,ZCCHC6,0.4527
UAUAGUCCACUCGCAGUCG,MRE11A,-0.991
UCCGUCUUGAGGACGUAUC,B3GALT4,0.4007
UUAAGGCCUGAGAUAGUUG,TRIM67,0.3814
UUUCGUCUUGAUGCUAACG,RFWD2,-0.5525
AUGCGUUCGAGGUAGACUG,USP42,1.064
AAAGGAAUAUAGGAUGUCU,CDC14B,0.1657
UCAGCUUGUAGCGAUGAUU,NKX2-8,-0.4057
UUUUUAAUCCUUUCAACUG,LOC729879,0.6042
UGCGUACUCCGCGAAAUGC,MPST,-0.3134
AAGAUAGUAAACUCGUAGC,TNIK,-0.3759
UCUGUUAGAUGGUAUACUG,CNTN1,-0.7188
AAAAUCUUGAGGACAAGGG,DMRT2,-1.162
UGUAGGCAAAGCAGCAGGG,CCL5,-0.6958
UACAUGUCUCUGGAUGCUG,C14orf105,-0.7798
UCAAAUAUCAGUCAAGUGU,ASH1L-AS1,0.9692
UUCGUUAUCAAUGUCCUCG,CCNB2,0.418
UCCACAACAGUAGACAUCG,KCTD14,-0.3006
UUUGUAUAAGGGCUGGAUG,RBM24,0.1007
AAGCGAUACAAAAACUUGG,CSRP2BP,-0.272
AUAGUCAACGAAUUGCUCC,CSRNP3,0.1586
UCACCAGUACCUUUUGUCC,TCAP,0.2559
UUUGCUCUCUCAUGAGUCC,STEAP1B,-0.4501
UUACCAUCCAGGAUGUUGC,EID3,0.03301
UAUGUGGUUAGAGUUCAAG,MRPL2,-0.3436
UGUAUAUCUAGCUUUGCUG,GORAB,-0.7058
AUAUUUCUCAGAGCGGUUG,LOC401068,-0.2392
UUAUAAGUACUCCAAUUGC,DYNAP,-0.2001
AACUCUAAGACUUCUCUUG,MAGEC3,-0.1948
UCCGUUAUCACAGUCCCAG,ASPHD2,0.162
AUGCGAUCAAUGUAUCUGC,PRPF8,-1.9
UCAGGUAGUAGCGAGAGUU,SEMA7A,-0.2032
UACUCGGUGACAAAGGUUC,ERRFI1,-0.284
AUGUAAUAAUGAAUAAUCC,NDUFB6,0.2016
AAACUGACUUGCUCGUUUG,ARHGAP10,0.3563
UUCUGGUAGAUGUUCAGGG,PDE6B,0.1381
AAACAAGUAGCUACCGCAC,RRAD,-1.154
UGUUCAUAGAGAGUCUGCC,TFR2,-0.6703
UUCUUUACUGCCUGGUUCU,SLC22A12,1.799
UGAGAUACUAGCAAUCUGG,TRAK1,-0.00521
UAGAGAUCUGGGAUGUUCU,SLAMF9,0.4154
UUCUCAAUGAUGCAGAAGC,RLBP1,-0.6296
UAAGCUCUCCAGCUGAUCC,AURKA,-1.599
UCUGCUACUUCUUUUGGUC,FAM104A,0.2906
UUUGUAUAGACUUCAUUCA,RIBC2,0.4345
AAUUUGACAAGACCACUGC,RPP14,-0.6145
AAACUGAUCGUAGAAGGCG,TMEM179,0.169
UUAGGUACAUAGAGAGGGC,OR2K2,0.1883
UUUCCUUUCAUCAUAUUUC,RPS8,1.388
UUUGCUAGAAGCUUGGGCC,STARD9,-0.4377
UUAAAGCCCUGAUAAGUAU,ZNF326,0.5404
UCAAUGCUUAGUCGGCAGC,PAX8,-0.2098
AUGAGGAUAACCAAGACCG,KCNA5,0.4232
UGAUUUUUCUCUCUAAUUC,KRT28,0.1291
UAUUAUCCAAAUACACGUG,FASTKD1,0.1722
UCUGGUAGCCCUCUAAACG,ARHGEF11,-0.631
UCGGUGGUCAUUAAGGACU,HDAC7,-0.1795

The last 8 entries again:

Sequence,target gene,seed-corrected z-score
UUUGCUAGAAGCUUGGGCC,STARD9,-0.4377
UUAAAGCCCUGAUAAGUAU,ZNF326,0.5404
UCAAUGCUUAGUCGGCAGC,PAX8,-0.2098
AUGAGGAUAACCAAGACCG,KCNA5,0.4232
UGAUUUUUCUCUCUAAUUC,KRT28,0.1291
UAUUAUCCAAAUACACGUG,FASTKD1,0.1722
UCUGGUAGCCCUCUAAACG,ARHGEF11,-0.631
UCGGUGGUCAUUAAGGACU,HDAC7,-0.1795